Experimental findings from paper PMC9740361 are described below.

Protein sequences, listed by entry. Tags and fused reporters are not part of them.
UniProt P35579: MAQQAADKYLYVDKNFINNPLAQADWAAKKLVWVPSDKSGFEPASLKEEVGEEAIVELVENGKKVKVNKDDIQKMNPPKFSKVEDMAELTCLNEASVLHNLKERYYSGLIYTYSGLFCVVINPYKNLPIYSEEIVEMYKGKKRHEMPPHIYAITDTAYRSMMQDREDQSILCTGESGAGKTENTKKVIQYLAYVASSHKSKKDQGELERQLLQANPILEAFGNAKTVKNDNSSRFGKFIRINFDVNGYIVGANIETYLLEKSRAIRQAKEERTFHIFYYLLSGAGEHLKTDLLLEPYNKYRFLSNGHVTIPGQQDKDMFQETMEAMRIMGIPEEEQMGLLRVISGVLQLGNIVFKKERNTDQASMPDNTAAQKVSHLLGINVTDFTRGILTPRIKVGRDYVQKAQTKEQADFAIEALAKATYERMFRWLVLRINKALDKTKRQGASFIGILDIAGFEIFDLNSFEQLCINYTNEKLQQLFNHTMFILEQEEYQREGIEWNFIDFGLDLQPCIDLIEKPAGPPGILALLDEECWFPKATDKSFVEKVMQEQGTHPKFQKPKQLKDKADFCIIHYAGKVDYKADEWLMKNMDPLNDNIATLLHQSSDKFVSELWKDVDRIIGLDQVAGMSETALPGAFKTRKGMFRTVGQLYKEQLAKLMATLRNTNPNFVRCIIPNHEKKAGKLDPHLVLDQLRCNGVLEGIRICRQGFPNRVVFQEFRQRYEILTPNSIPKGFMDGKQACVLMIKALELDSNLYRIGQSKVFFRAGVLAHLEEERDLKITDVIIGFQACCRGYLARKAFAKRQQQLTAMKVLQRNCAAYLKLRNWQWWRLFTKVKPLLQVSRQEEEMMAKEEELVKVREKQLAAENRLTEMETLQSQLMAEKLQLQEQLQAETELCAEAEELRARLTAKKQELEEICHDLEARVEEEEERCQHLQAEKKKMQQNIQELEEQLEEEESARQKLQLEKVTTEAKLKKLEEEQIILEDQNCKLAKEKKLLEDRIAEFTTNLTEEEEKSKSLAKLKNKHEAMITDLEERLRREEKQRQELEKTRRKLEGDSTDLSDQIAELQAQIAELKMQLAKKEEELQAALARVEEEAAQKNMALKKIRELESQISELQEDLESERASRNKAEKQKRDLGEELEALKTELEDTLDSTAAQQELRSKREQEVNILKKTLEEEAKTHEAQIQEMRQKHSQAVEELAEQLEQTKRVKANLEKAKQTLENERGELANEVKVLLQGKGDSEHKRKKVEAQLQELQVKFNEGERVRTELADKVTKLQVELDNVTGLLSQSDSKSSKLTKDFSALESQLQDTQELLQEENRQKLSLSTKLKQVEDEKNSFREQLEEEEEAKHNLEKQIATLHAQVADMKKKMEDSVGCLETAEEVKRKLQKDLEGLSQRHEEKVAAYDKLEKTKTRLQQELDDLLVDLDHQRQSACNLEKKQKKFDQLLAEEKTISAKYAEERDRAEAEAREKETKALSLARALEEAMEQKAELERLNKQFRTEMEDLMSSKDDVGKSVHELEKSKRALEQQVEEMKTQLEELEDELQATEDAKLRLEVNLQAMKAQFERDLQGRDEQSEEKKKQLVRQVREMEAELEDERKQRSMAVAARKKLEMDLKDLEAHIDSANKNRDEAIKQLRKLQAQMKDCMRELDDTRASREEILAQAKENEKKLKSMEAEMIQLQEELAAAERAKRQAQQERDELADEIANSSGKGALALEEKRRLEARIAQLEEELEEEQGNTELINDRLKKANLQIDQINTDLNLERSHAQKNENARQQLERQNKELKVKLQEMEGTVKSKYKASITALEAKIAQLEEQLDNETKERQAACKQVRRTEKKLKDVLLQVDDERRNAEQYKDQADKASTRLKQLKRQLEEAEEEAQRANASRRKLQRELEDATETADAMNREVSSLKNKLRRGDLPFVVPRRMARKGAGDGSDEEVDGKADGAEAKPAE

Results are given in words; binding and its absence hold for the method and conditions named. Binding seen in cells or lysates may run through a third protein. These calls come from enrichment with a bait or labelling near it, and not all partners need be listed. Where a sequence is shown, tags or fusion partners need not be part of it.

In this assay the target is T1, Nucleosome assembly protein 1-like 5 (NAP1L5), Flag-tagged (human) (UniProt Q96NT1).
T1 sequence: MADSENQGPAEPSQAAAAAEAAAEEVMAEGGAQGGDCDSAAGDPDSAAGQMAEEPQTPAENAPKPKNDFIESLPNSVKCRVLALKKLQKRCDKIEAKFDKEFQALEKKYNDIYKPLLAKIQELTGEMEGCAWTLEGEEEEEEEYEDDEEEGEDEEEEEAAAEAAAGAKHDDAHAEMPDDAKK
In words: affinity purification with mass spectrometry; FLAG IP (FLAGIPT1 kit, Sigma) from lysate of MHCC97H cells overexpressing FLAG-labelled NAP1L5, lysed at 4°C; mass spectrometry of tryptic fragments.

For the substance “MYH9 (nonmuscle myosin, NMIIA) (from UniProt P35579 1-1960)”, the binding result is “binds”.
